Results deposited as PubChem BioAssay AID1259254 (NCATS, 2017).

- Purpose: 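Finding genes that stop cells copying their DNA twice in one cycle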 (primary screen)
- Cell system: human HCT116 colorectal cancer cells
- Knock-down reagent: single siRNA against human genes
- Time to read-out: 3 days
- Measurement: 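Imaged Hoechst DNA stain sorts each cell into a cycle phase by DNA amount; per plate, G2 fraction set to 0% for non-targeting and 100% for GMNN siRNA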
- Reading the numbers: G2 robust z-score and G2 cells, % of GMNN control: higher = more G2 cells, more excess DNA replication; raw share of cells in G2: higher = larger share of cells with G2 DNA content
- Call rule: 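Active siRNAs have a G2 robust z of 5 or more median absolute deviations over the median, which in these data means about 38% or higher of GMNN control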
In all, the deposit lists about 59,000 reagents; shown is a random part of them. About 1,550 of all reagents (2.6%) were called active. 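G2 share is only a proxy for re-replication; each gene was hit by three separate siRNAs, and active genes were retested.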 The raw values are shown without normalisation. The numbers tell different reagents against one gene apart. The record does not give: the amount of reagent.

no.	target	siRNA no.	G2 robust z-score	G2 cells, % of GMNN control	raw share of cells in G2 (%)	Outcome
1	MIGA2 (mitoguardin 2)	1	-0.645	-1.57	3.42	inactive
2	MIGA2 (mitoguardin 2)	2	0.377	5.62	4.76	inactive
3	MIGA2 (mitoguardin 2)	3	-0.0577	2.56	3.74	inactive
4	XYLB (xylulokinase)	1	-1.15	-5.15	3.99	inactive
5	XYLB (xylulokinase)	2	-1.15	-5.11	2.05	inactive
6	XYLB (xylulokinase)	3	0.683	7.77	8.02	inactive
7	AZIN2 (antizyme inhibitor 2)	1	-0.356	0.466	5.89	inactive
8	AZIN2 (antizyme inhibitor 2)	2	-0.571	-1.05	4.52	inactive
9	AZIN2 (antizyme inhibitor 2)	3	0.0857	3.57	5.83	inactive
10	TOE1 (target of EGR1, exonuclease)	1	0.0109	3.04	5.31	inactive
11	TOE1 (target of EGR1, exonuclease)	2	-0.381	0.284	3.41	inactive
12	TOE1 (target of EGR1, exonuclease)	3	-0.85	-3.02	0.937	inactive
13	DCP1A (decapping mRNA 1A)	1	1.64	14.5	7.9	inactive
14	DCP1A (decapping mRNA 1A)	2	-0.436	-0.104	5.86	inactive
15	DCP1A (decapping mRNA 1A)	3	-0.591	-1.19	3.26	inactive
16	CST9LP1 (cystatin 9-like pseudogene 1)	1	0.237	4.63	4.88	inactive
17	CST9LP1 (cystatin 9-like pseudogene 1)	2	-0.436	-0.0985	2.75	inactive
18	CST9LP1 (cystatin 9-like pseudogene 1)	3	0.317	5.2	5.59	inactive
19	SPRTN (SprT-like N-terminal domain)	1	0.601	7.2	6.5	inactive
20	SPRTN (SprT-like N-terminal domain)	2	-0.419	0.0173	3.46	inactive
21	SPRTN (SprT-like N-terminal domain)	3	1.74	15.2	7.03	inactive
22	BICRA	1	-0.839	-2.94	2.73	inactive
23	BICRA	2	-0.369	0.369	4.69	inactive
24	BICRA	3	1.23	11.6	6.91	inactive
25	CPNE2 (copine 2)	1	0.337	5.34	5.51	inactive
26	CPNE2 (copine 2)	2	-0.333	0.623	3.34	inactive
27	CPNE2 (copine 2)	3	5.08	38.7	15.5	active
28	DSC2 (desmocollin 2)	1	-0.831	-2.88	3.1	inactive
29	DSC2 (desmocollin 2)	2	1.13	10.9	8.85	inactive
30	DSC2 (desmocollin 2)	3	1.65	14.6	10.3	inactive
31	VWA1 (von Willebrand factor A domain containing 1)	1	-0.441	-0.135	4.18	inactive
32	VWA1 (von Willebrand factor A domain containing 1)	2	-1.33	-6.4	2.08	inactive
33	VWA1 (von Willebrand factor A domain containing 1)	3	-0.179	1.71	6.36	inactive
34	SH3RF3 (SH3 domain containing ring finger 3)	1	-0.315	0.75	4.24	inactive
35	SH3RF3 (SH3 domain containing ring finger 3)	2	0.265	4.83	5.37	inactive
36	SH3RF3 (SH3 domain containing ring finger 3)	3	-0.905	-3.4	2.82	inactive

An excerpt from above, reduced to “G2 cells, % of GMNN control”.
CST9LP1 (cystatin 9-like pseudogene 1) #3: 5.2
SPRTN (SprT-like N-terminal domain) #1: 7.2
SPRTN (SprT-like N-terminal domain) #2: 0.0173
SPRTN (SprT-like N-terminal domain) #3: 15.2
BICRA #1: -2.94
BICRA #2: 0.369
BICRA #3: 11.6
CPNE2 (copine 2) #1: 5.34
CPNE2 (copine 2) #2: 0.623
CPNE2 (copine 2) #3: 38.7
DSC2 (desmocollin 2) #1: -2.88
DSC2 (desmocollin 2) #2: 10.9
DSC2 (desmocollin 2) #3: 14.6
VWA1 (von Willebrand factor A domain containing 1) #1: -0.135
VWA1 (von Willebrand factor A domain containing 1) #2: -6.4

The list goes on:
no.	target	siRNA no.	G2 robust z-score	G2 cells, % of GMNN control	raw share of cells in G2 (%)	Outcome
37	OR4C3 (olfactory receptor family 4 subfamily C member 3)	1	-0.458	-0.252	3.49	inactive
38	OR4C3 (olfactory receptor family 4 subfamily C member 3)	2	0.889	9.22	6.29	inactive
39	OR4C3 (olfactory receptor family 4 subfamily C member 3)	3	-0.253	1.19	3.57	inactive
40	GCNT2P1 (GCNT2 pseudogene 1)	1	0.716	8	6.68	inactive
41	GCNT2P1 (GCNT2 pseudogene 1)	2	0.897	9.28	6.61	inactive
42	GCNT2P1 (GCNT2 pseudogene 1)	3	2.83	22.9	9.82	inactive
43	LIPF (lipase F, gastric type)	1	-0.596	-1.22	4.27	inactive
44	LIPF (lipase F, gastric type)	2	0.454	6.16	7.43	inactive
45	LIPF (lipase F, gastric type)	3	0.962	9.73	8.96	inactive
46	AVPI1 (arginine vasopressin induced 1)	1	-0.192	1.62	5.29	inactive
47	AVPI1 (arginine vasopressin induced 1)	2	-0.135	2.02	5.51	inactive
48	AVPI1 (arginine vasopressin induced 1)	3	0.791	8.54	4.95	inactive
49	APRT (adenine phosphoribosyltransferase)	1	-1.79	-9.62	1.44	inactive
50	APRT (adenine phosphoribosyltransferase)	2	1.51	13.6	9.04	inactive
51	APRT (adenine phosphoribosyltransferase)	3	-1.35	-6.54	2.74	inactive
52	MTBP (MDM2 binding protein)	1	3.32	26.3	11.6	inactive
53	MTBP (MDM2 binding protein)	2	0.659	7.6	6.76	inactive
54	MTBP (MDM2 binding protein)	3	1.19	11.4	8.85	inactive
55	KCNS1	1	-1.17	-5.29	2.26	inactive
56	KCNS1	2	2.01	17.1	11.3	inactive
57	KCNS1	3	0.0072	3.02	6.83	inactive
58	TYMSOS (TYMS opposite strand RNA)	1	5.73	43.3	20.3	active
59	TYMSOS (TYMS opposite strand RNA)	2	-0.473	-0.358	3.28	inactive
60	TYMSOS (TYMS opposite strand RNA)	3	-0.292	0.914	3.43	inactive
61	VN2R17P (vomeronasal 2 receptor 17, pseudogene)	1	-0.444	-0.16	3.26	inactive
62	VN2R17P (vomeronasal 2 receptor 17, pseudogene)	2	-0.691	-1.9	2.48	inactive
63	VN2R17P (vomeronasal 2 receptor 17, pseudogene)	3	1.58	14.1	6.95	inactive
64	SIGLEC9 (sialic acid binding Ig like lectin 9)	1	-0.915	-3.47	2.85	inactive
65	SIGLEC9 (sialic acid binding Ig like lectin 9)	2	0.683	7.78	9.69	inactive
66	SIGLEC9 (sialic acid binding Ig like lectin 9)	3	-0.936	-3.62	2.99	inactive
67	SPP1 (secreted phosphoprotein 1)	1	0.265	4.83	7.31	inactive
68	SPP1 (secreted phosphoprotein 1)	2	5.42	41.1	18.6	active
69	SPP1 (secreted phosphoprotein 1)	3	-0.0656	2.51	4.79	inactive
70	HRH4 (histamine receptor H4)	1	-0.494	-0.506	5.66	inactive
71	HRH4 (histamine receptor H4)	2	1.56	13.9	9.39	inactive
72	HRH4 (histamine receptor H4)	3	-0.247	1.23	3.65	inactive
73	TMCO1 (transmembrane and coiled-coil domains 1)	1	-0.73	-2.17	2.83	inactive
74	TMCO1 (transmembrane and coiled-coil domains 1)	2	-0.979	-3.92	2.62	inactive
75	TMCO1 (transmembrane and coiled-coil domains 1)	3	0.525	6.66	5.39	inactive
76	RRP1B (ribosomal RNA processing 1B)	1	2.57	21.1	11.1	inactive
77	RRP1B (ribosomal RNA processing 1B)	2	0.454	6.16	7.4	inactive
78	RRP1B (ribosomal RNA processing 1B)	3	0.184	4.26	5.89	inactive
79	NOL3 (nucleolar protein 3)	1	-0.596	-1.22	2.92	inactive
80	NOL3 (nucleolar protein 3)	2	-0.292	0.915	5.54	inactive
81	NOL3 (nucleolar protein 3)	3	2.91	23.4	13.2	inactive
82	SLC10A2	1	-0.974	-3.88	4.37	inactive
83	SLC10A2	2	1.41	12.9	8.95	inactive
84	SLC10A2	3	1.15	11	7.61	inactive
85	SERPINA7 (serpin family A member 7)	1	-0.224	1.39	5.46	inactive
86	SERPINA7 (serpin family A member 7)	2	-0.165	1.81	5.37	inactive
87	SERPINA7 (serpin family A member 7)	3	-1.27	-6	2.15	inactive
